Reference: paper doi:10.1101/2023.07.31.551310
No constants are given. Whether binding was seen depends on the method and setting. In cells and extracts the contact can be indirect. A yes stands for co-enrichment or nearness to the bait. Other partners may have been found. A no says only that the protein was not detected with the bait.

Amino acid sequences for entries named in this document (tags omitted). A change or cut given only in a name is not applied to a line headed by its entry.
UniProt F4IXW2: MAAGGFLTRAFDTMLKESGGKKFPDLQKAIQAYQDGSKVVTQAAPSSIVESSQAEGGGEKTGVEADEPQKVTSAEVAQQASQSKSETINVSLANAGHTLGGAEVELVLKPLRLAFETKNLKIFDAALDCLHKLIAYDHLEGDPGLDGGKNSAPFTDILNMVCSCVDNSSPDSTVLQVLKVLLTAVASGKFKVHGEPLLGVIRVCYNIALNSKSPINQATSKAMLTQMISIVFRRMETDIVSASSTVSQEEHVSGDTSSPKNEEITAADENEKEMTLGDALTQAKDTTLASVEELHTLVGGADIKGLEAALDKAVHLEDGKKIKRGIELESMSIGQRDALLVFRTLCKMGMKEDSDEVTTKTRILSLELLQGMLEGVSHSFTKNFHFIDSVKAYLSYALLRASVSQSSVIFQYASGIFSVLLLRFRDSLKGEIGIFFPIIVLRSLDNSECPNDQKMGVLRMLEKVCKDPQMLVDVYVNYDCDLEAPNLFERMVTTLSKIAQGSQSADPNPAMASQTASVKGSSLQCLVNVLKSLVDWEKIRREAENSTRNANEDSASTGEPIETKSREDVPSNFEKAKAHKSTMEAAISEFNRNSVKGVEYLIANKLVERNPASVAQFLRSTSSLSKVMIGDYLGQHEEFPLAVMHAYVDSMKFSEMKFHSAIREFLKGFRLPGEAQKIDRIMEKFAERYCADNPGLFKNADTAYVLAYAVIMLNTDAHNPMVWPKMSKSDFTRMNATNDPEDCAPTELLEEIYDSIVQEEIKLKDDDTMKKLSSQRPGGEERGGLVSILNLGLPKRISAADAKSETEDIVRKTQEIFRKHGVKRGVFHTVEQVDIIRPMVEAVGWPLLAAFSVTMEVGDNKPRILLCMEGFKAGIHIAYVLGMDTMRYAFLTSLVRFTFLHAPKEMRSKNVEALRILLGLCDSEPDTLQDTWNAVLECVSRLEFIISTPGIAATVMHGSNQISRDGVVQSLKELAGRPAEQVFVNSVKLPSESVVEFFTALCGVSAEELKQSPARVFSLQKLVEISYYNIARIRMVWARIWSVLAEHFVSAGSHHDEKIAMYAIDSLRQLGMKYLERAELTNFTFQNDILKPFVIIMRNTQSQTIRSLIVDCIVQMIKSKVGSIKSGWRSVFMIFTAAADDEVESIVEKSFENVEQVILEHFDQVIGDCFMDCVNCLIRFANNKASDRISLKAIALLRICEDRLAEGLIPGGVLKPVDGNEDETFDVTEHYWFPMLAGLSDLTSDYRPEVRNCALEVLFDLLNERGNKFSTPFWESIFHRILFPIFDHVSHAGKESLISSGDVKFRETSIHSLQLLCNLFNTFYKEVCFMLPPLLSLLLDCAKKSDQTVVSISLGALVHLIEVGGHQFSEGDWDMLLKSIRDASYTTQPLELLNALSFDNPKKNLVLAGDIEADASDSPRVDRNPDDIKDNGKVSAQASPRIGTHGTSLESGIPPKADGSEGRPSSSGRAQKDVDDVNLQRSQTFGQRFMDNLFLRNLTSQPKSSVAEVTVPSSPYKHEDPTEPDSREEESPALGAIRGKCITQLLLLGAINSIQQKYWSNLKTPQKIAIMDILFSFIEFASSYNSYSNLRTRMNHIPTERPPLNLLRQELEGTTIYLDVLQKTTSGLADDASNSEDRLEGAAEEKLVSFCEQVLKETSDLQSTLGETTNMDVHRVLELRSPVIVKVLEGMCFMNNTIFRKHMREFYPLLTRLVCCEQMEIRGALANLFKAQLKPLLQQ
UniProt Q9LPC5: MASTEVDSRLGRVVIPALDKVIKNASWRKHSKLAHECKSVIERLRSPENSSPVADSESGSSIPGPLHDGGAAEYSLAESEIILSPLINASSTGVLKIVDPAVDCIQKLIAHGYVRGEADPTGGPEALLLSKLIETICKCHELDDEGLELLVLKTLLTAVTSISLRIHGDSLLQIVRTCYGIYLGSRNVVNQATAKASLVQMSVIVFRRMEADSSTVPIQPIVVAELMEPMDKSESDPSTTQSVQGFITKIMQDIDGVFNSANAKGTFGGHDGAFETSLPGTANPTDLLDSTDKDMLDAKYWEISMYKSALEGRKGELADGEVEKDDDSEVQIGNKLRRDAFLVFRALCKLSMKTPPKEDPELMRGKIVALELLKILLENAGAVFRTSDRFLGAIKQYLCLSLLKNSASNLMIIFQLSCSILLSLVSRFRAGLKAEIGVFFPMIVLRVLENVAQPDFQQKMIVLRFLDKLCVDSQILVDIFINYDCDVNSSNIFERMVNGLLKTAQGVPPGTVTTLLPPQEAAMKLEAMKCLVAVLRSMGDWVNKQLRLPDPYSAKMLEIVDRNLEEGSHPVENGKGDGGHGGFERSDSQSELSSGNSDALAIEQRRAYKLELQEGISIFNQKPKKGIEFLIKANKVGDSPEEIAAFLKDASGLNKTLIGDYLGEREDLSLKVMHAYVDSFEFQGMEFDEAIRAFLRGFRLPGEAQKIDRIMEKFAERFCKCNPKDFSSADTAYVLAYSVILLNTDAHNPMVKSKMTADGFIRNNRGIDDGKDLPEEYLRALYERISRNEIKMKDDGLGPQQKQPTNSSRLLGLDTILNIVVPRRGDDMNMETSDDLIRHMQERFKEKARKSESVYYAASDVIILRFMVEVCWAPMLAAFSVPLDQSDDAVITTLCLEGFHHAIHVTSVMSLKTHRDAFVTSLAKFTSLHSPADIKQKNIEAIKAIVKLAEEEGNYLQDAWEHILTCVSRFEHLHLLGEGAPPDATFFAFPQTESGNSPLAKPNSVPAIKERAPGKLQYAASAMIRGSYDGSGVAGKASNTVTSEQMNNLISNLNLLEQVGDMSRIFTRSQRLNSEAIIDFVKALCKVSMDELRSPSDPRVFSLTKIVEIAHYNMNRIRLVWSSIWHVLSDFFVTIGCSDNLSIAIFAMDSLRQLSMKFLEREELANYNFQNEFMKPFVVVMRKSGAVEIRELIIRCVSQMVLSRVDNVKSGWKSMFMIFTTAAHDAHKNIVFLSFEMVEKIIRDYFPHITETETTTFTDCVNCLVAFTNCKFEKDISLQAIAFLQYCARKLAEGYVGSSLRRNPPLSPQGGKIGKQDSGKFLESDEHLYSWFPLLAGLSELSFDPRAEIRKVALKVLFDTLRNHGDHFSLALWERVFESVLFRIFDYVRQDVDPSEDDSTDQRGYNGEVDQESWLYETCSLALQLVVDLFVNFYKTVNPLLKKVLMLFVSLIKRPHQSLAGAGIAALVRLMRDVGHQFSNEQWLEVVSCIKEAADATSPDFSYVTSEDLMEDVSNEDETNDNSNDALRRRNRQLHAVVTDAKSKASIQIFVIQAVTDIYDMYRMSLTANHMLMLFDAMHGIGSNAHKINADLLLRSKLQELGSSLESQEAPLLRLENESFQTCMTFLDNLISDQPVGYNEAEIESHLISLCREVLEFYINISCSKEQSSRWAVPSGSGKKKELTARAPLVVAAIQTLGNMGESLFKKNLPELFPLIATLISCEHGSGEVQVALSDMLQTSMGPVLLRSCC
UniProt F4JSZ5: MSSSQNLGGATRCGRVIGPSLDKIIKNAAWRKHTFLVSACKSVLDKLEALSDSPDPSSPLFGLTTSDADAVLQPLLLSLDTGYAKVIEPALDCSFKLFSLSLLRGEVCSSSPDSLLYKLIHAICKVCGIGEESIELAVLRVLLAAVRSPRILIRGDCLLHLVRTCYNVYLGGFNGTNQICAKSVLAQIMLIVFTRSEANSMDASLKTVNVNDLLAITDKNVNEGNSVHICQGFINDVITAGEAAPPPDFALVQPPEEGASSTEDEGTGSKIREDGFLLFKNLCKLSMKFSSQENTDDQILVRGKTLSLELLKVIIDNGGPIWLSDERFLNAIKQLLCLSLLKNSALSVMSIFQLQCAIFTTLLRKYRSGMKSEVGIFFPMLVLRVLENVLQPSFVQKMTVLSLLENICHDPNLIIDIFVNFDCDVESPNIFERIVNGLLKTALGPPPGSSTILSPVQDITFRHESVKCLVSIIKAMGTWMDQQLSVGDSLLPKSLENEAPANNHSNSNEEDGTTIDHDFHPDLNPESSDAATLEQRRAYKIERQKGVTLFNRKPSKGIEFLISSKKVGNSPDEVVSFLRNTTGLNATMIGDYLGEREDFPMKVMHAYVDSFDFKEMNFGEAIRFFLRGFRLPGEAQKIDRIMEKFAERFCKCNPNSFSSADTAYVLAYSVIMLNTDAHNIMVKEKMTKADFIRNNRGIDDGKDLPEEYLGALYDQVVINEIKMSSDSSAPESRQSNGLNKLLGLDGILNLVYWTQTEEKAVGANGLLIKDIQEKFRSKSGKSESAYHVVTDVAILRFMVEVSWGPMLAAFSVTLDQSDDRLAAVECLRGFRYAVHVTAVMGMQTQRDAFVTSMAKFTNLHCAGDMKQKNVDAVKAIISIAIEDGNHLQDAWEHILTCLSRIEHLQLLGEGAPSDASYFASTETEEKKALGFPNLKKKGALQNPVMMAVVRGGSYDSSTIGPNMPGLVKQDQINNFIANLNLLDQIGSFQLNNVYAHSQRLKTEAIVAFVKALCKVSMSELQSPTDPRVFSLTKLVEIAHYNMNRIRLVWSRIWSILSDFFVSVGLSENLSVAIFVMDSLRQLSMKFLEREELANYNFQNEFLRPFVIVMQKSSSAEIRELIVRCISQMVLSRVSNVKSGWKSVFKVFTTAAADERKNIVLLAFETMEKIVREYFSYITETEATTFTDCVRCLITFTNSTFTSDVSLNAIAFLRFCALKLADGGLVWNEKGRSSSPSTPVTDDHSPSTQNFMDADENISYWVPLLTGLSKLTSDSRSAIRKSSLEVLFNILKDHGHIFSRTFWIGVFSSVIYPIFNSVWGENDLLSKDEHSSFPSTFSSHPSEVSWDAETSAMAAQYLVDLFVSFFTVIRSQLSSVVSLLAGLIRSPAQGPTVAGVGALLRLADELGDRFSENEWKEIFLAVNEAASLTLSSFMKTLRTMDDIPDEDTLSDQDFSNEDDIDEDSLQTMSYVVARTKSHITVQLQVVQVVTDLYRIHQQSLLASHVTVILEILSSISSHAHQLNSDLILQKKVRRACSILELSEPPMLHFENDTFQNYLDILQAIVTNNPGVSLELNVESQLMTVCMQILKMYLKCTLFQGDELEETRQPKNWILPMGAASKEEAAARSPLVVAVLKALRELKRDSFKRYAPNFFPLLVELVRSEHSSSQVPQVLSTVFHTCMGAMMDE
UniProt P36397: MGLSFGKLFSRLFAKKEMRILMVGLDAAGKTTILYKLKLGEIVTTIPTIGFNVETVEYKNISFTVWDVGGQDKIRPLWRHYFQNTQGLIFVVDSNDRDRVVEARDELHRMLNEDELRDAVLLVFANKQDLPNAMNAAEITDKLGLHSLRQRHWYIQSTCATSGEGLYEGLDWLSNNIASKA

B1: MIN10 (14-3-3 KAPPA) (protein, UniProt P48348 1-248)
chain: MATTLSRDQYVYMAKLAEQAERYEEMVQFMEQLVSGATPAGELTVEERNLLSVAYKNVIGSLRAAWRIVSSIEQKEESRKNEEHVSLVKDYRSKVETELSSICSGILRLLDSHLIPSATASESKVFYLKMKGDYHRYLAEFKSGDERKTAAEDTMIAYKAAQDVAVADLAPTHPIRLGLALNFSVFYYEILNSSEKACSMAKQAFEEAIAELDTLGEESYKDSTLIMQLLRDNLTLWTSDMQEQMDEA
B2: 14-3-3 CHI (protein, UniProt P42643 1-267)
chain: MATPGASSARDEFVYMAKLAEQAERYEEMVEFMEKVAKAVDKDELTVEERNLLSVAYKNVIGARRASWRIISSIEQKEESRGNDDHVSLIRDYRSKIETELSDICDGILKLLDTILVPAAASGDSKVFYLKMKGDYHRYLAEFKSGQERKDAAEHTLTAYKAAQDIANSELAPTHPIRLGLALNFSVFYYEILNSPDRACNLAKQAFDEAIAELDTLGEESYKDSTLIMQLLRDNLTLWTSDMQDDVADDIKEAAPAAAKPADEQQS
B3: HLB1 (… TO LATRUNCULIN B1), tetratricopeptide repeat protein (protein, UniProt Q9FHY8 1-565)
chain: MADTVEEPQLQNGAAPAESETEQNPIPEPQLQTEPKLTGEIPEIEADLTPEEVQSEVTDAKPEEVQSEVKPEEVKTVVTDAKPEEAQSEVKPEEVQSVVTDTKPDLTDVDLSPGGSEEIPIRSTEVEQESTTSVLKKDDDGNKTFTMRELLSELKSEEGDGTPHSSASPFSRESASQPAENNPAMDLINRIQVNDEEGRSRQRVLAFAARKYASAIERNPDDHDALYNWALILQESADNVSPDSVSPSKDDLLEEACKKYDEATRLCPTLYDAYYNWAIAISDRAKIRGRTKEAEELWEQAADNYEKAVQLNWNSSQALNNWGLVLQELSQIVPAREKEKVVRTAISKFRAAIRLQFDFHRAIYNLGTVLYGLAEDTLRTGGSGNGKDMPPGELYSQSAIYIAAAHSLKPSYSVYSSALRLVRSMLPLPHLKVGYLTAPPVGNSLAPHSDWKRTEFELNHERLLQVLKPEPREMGRNLSGKAETMSTNVERKTVKVNITEIVSVTPCADLTLPPGAGLCIDTIHGPVFLVADSWESLDGWLDAIRLVYTIYARGKSDVLAGIITG
B4: MIN2 (RAD23a) (protein, UniProt Q84L32 1-368)
chain: MKLTVKTLKGSHFEIRVLPTDTIMAVKKNIEDSQSKDNYPCGQQLLIHNGKVLKDETTLVENKVTEEGFLVVMLSKSKTASSAGPSSTQPTSTTTSTISSTTLAAPSTTQSIAVPASNSTPVQEQPTAQSDTYGQAASTLVSGSSIEQMVQQIMEMGGGSWDKETVTRALRAAYNNPERAVDYLYSGIPETVTIPATNLSGVGSGRELTAPPPSGGPNSSPLDLFPQEAVSDAAGGDLGTLEFLRGNDQFQQLRSMVNSNPQILQPMLQELGKQNPQLLRLIQENQAEFLQLLNEPYEGSDGDVDIFDQPDQEMPHSVNVTPEEQESIERLEAMGFDRAIVIEAFLSCDRNEELAANYLLEHSADFED

Legend:
[1] = molecular target: MIN7-GFP fusion protein (Arabidopsis) (UniProt F4IXW2); assay: affinity purification with mass spectrometry; GFP-Trap A beads, 3 h at 4°C; TGN vesicle extract of flg22-treated min7/35S::MIN7-GFP plants; control Col-0; washed with buffer containing 0.1% NP-40; two replicates
[2] = molecular target: MIN7-GFP fusion protein (Arabidopsis) (UniProt F4IXW2); assay: affinity purification with mass spectrometry; GFP-Trap A beads, 2 h at 4°C; detergent-solubilized (0.2% NP-40) total leaf extract of 1 μM flg22-treated min7/35S::MIN7-GFP plants; controls Col-0 and Col-0/35S::GFP; on-bead digestion, LC/MS/MS; three replicates

Molecule | binding [1] | binding [2]
SEC7-like ARF-GEF (AT1G01960) (from UniProt Q9LPC5 1-1750) | binds | –
SEC7-like ARF-GEF (AT4G38200) (from UniProt F4JSZ5 1-1687) | binds | –
MIN13 (ARF-GEF, BIG2) (from UniProt Q9LZX8 1-1793) | binds | binds
ARFA1c (from UniProt P36397) | – | binds
B1 | binds | –
B2 | – | binds
B3 | binds | binds
B4 | no binding | no binding
